Reference: the supplement of paper PMC12889115
The list shows a part of the results. These are raw signals, not scaled to a control.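 In the initial screen, polymyxin B was used at a concentration that permeabilizes Salmonella's outer membrane but not its inner membrane. Maximum growth was set by DMSO wells with or without polymyxin B. Since plates varied, data were ranked per plate, and compounds giving the lowest OD600 advanced as hits.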

Test system: Salmonella enterica serovar Typhimurium SL1344
Assay: bacterial growth OD600 after 18 h with compound and polymyxin B; higher = more bacterial growth (less inhibition)
Conditions: 50 µM, Mueller-Hinton broth

SMILES	bacterial growth OD600 (polymyxin B 0.75 µg/mL)	bacterial growth OD600 (polymyxin B 1 µg/mL)
O=C1O[C@@H]2CN(C3CCSCC3)C[C@@H]2N1CCc1ccccn1	0.824	
CO[C@H]1[C@H](NC(=O)c2ccncc2)c2ccccc2C12CCN(C(=O)C1C(C)(C)C1(C)C)CC2	0.703	
COc1ccc(C(=O)C2CCCN(Cc3ccccc3C)C2)c(OC)c1 (centres undefined)		0.957
CC(Cc1cncs1)NC1CCN(c2cccc(NS(=O)(=O)c3ccc(F)cc3)c2)CC1 (centres undefined)	0.863	
CCC(=O)N[C@@H]1c2ccccc2C2(CCN(C(=O)C3C(C)(C)C3(C)C)CC2)[C@H]1OCc1cccnc1	0.01	
COCCN(C(=O)c1cn(Cc2ccccn2)cc(C(=O)NC2CCCCCCC2)c1=O)C(C)C	0.862	
Cc1ccsc1C(=O)C1CCCN(Cc2ccc(C#CC(C)(C)O)s2)C1 (centres undefined)		0.733
Cc1cc(Cl)ccc1C(=O)C1CCCN(C2CSCCSC2)C1 (centres undefined)		0.657
COc1ccc2cc(C(=O)C3CCCN(CC4CC4)C3)ccc2c1 (centres undefined)		0.753
O=c1cccc2n1C[C@H]1C[C@@H]2CN(Cc2nc(N3CCOCC3)c3cc(Cl)ccc3n2)C1	0.81	
Cc1ccc(CN2CCN(Cc3ccccc3)CC2CCO)cc1 (centres undefined)		0.888
COc1ccc(C(=O)C2CCCN(Cc3cccc(F)c3)C2)c(OC)c1 (centres undefined)		0.932
CCOC(=O)C1(CCc2ccccc2)CCN(Cc2ccco2)CC1		0.84
CC1(C)C(C(=O)N2CCC(C3(c4cccnc4)NC(=O)N(CCc4cccs4)C3=O)CC2)C1(C)C (centres undefined)	0.794	
COc1cc(CN2CCCC(C(=O)c3cccc(Cl)c3)C2)cc(OC)c1 (centres undefined)		0.391
O=C(NCc1cc(C(F)(F)F)ccc1F)c1cn(C2CCCCC2)nn1		0.774
O=C(Cc1cccnc1)N1CCCC(N2CCN(c3ccccc3F)CC2)C1 (centres undefined)		0.985
COc1c(C)cc(C(=O)C2CCCN(Cc3ccc(CO)o3)C2)cc1C (centres undefined)		0.877
COc1ccccc1Cn1cc(C(=O)NCCSC)c(=O)c(C(=O)NCCC(C)C)c1	0.63	
O=C1O[C@@H]2CN(C3CCCC3)C[C@@H]2N1CCc1ccccn1		1.26

3 entries out of the list, sorted by formula weight, smallest number first:
SMILES	bacterial growth OD600 (polymyxin B 0.75 µg/mL)	bacterial growth OD600 (polymyxin B 1 µg/mL)
CCOC(=O)C1(CCc2ccccc2)CCN(Cc2ccco2)CC1		0.84
Cc1cc(Cl)ccc1C(=O)C1CCCN(C2CSCCSC2)C1 (centres undefined)		0.657
COc1ccccc1Cn1cc(C(=O)NCCSC)c(=O)c(C(=O)NCCC(C)C)c1	0.63	

Following part.

SMILES	bacterial growth OD600 (polymyxin B 0.75 µg/mL)	bacterial growth OD600 (polymyxin B 1 µg/mL)
CC(Cc1ccccn1)NC1CCN(c2ccc(NC(=O)CCc3ccccc3)cc2)CC1 (centres undefined)	0.822	
Cc1ccc(CN2C[C@H]3OC(=O)N(Cc4ccccn4)[C@H]3C2)o1	0.843	
CC(C)CNC1COc2ccccc2C1 (centres undefined)	0.845	
Cc1nc(CC(=O)N(C)C2CCCN(CCc3ccccc3)C2)cs1 (centres undefined)		1.05
O=C(NC1CC1)c1cn(Cc2ccccc2)cc(C(=O)N2CC[C@@H]3CCCC[C@H]3C2)c1=O	0.896	
COc1c(C)cc(C(=O)C2CCCN(Cc3cccc(C)n3)C2)cc1C (centres undefined)		0.891
CCOC(=O)C1(CCc2ccccc2)CCN(Cc2cccc3c2OCO3)CC1		0.806
COc1c(C)cc(C(=O)C2CCCN(C3CCCC3)C2)cc1C (centres undefined)		0.879
O=C(NCc1cc(F)cc(F)c1)c1cn(C2CCCCC2)nn1		0.704
O=C(Cc1ccc2c(c1)OCO2)N1CCCC(N2CCN(c3ccc(F)cc3)CC2)C1 (centres undefined)		0.891
Cc1oc(-c2cccc(F)c2F)nc1CN1C[C@@H]2C[C@H](C1)c1cccc(=O)n1C2		0.895
Cc1ccsc1C(=O)C1CCCN(Cc2cccc(F)c2)C1 (centres undefined)		0.788
COCCNC(=O)c1cn(CCC(C)C)cc(C(=O)N[C@H](C)c2ccc(OC)cc2)c1=O	0.898	
COc1ccc(OC)c(CN2CCCC(C(=O)c3cccc(Cl)c3)C2)c1 (centres undefined)		0.771
CC(C)(C)CNC1COc2ccccc2C1 (centres undefined)	0.851	
CC(Cc1cncs1)NC1CCN(c2ccc(CC(=O)NCCc3cccc(F)c3)cc2)CC1 (centres undefined)	0.842	
CC(Cc1cccnc1)NC1CCN(c2ccc(NC(=O)Cc3cccc(Cl)c3)cc2)CC1 (centres undefined)	0.879	
CCN(CC)C(=O)c1cn(Cc2cccc(OC)c2)cc(C(=O)NCc2ccc(C)cc2)c1=O	0.849	
CCn1cc(CN2CCCC(C(=O)c3ccc(Cl)cc3C)C2)c(C)n1 (centres undefined)		0.767
